Results are given in words; binding and its absence hold for the method and conditions named. Binding can be weak; no strength is given. For part of these data: Sequences can lack the tags named with a protein. For part of these data: Binding seen in cells or lysates may run through a third protein.
What was measured:
[1] = biological target: A. japonicus Myc (AjMyc), endogenous (Apostichopus japonicus (endogenous in coelomocytes)); experiment: co-IP; endogenous proteins in the nuclei of coelomocytes of sea cucumbers challenged with V. splendidus; western blotting; Histone H3 as internal reference
[2] = biological target: FLAG-tagged AjMyc-f1 (full length ORF, 1-431 aa) (Apostichopus japonicus); experiment: co-IP; HEK 293T cells transfected with FLAG-tagged AjMyc and EGFP-tagged AjOTUB1 constructs; IP with anti-FLAG and blot with anti-GFP, and IP with anti-GFP and blot with anti-FLAG; pre-immune serum as control; also in si-circ-1- or siNC-transfected cells
[3] = biological target: FLAG-tagged AjMyc-f3 (300-407 aa) (Apostichopus japonicus); experiment: as above
[4] = biological target: FLAG-tagged AjMyc-f1 (full length ORF, 1-431 aa) (Apostichopus japonicus); experiment: pull-down; rAjMyc-f1 (1 μg) immobilised on FLAG resin; rAjOTUB1-f1 or rAjOTUB1-f1-mut (3 μg) added mixed with circ-FGL1-f1 or circ-FGL1-f1-mut (3 μg), overnight at 4°C; eluted with FLAG elution buffer; blot with anti-GFP; both purified

B1: A. japonicus OTU domain-containing ubiquitin aldehyde-binding protein 1 (AjOTUB1), endogenous (enzyme, UniProt A0AB39JB66 1-266)
chain: MAENPDNKIDEEIERLTGMVRDEAILAQQDRIQKEVEDSNALVSERLPLLILKEEYQSDPIYSKKIEDMNASFPYIRKTRGDGNCFFRAFGFAYMEKLLSDKAELHRFKEIIEKSKDTLISLGCPSFTLMDFHDTFMEVVNQLEEKPSLSELVATYCDQGMSDYLVVYLRLLTSLELQKEAEFYQNFVEGNRTVKEFCSQEVEPMYKESDHIHIIALTSYLGVGVRVVYLDRGENQKVNHHDFPEGMPPQIALLYRPGHYDVLYGD
With B1 the binding [1] was “binds”.

B2: EGFP-tagged AjOTUB1-f1 (full-length ORF, 1-266 aa) (enzyme, UniProt A0AB39JB66 1-266)
chain: B1 chain
For B2, the binding [2] was “binds”, the binding [3] was “binds” and the binding [4] was “binds”.

B3: EGFP-tagged AjOTUB1-f2 (110-210 aa) (domain or fragment, UniProt A0AB39JB66 110-210)
chain: EIIEKSKDTLISLGCPSFTLMDFHDTFMEVVNQLEEKPSLSELVATYCDQGMSDYLVVYLRLLTSLELQKEAEFYQNFVEGNRTVKEFCSQEVEPMYKESD
For B3, the binding [2] was “binds” and the binding [3] was “binds”.
